Reference: article PMC4014126 (2014)
Numbering of substitutions follows the chain as printed. Results are given in words; binding and its absence hold for the method and conditions named. Binding seen in cells or lysates may run through a third protein. Some entries that bind do so weakly or less than the wild type. Sequences can lack the tags named with a protein.

Columns and labels:
Assay in all cases: co-IP; IL-17RA-deficient MEFs reconstituted by retroviral infection with Myc-tagged mouse IL-17RA or its mutants, treated with IL-17 for 10 min; cell extracts incubated overnight with anti-Myc antibody (1 µg) and protein A beads, washed four times with lysis buffer; Western blot for Act1
[1] = molecular target: T1, Myc-tagged mouse IL-17RA (mouse) (UniProt Q60943)
T1 sequence: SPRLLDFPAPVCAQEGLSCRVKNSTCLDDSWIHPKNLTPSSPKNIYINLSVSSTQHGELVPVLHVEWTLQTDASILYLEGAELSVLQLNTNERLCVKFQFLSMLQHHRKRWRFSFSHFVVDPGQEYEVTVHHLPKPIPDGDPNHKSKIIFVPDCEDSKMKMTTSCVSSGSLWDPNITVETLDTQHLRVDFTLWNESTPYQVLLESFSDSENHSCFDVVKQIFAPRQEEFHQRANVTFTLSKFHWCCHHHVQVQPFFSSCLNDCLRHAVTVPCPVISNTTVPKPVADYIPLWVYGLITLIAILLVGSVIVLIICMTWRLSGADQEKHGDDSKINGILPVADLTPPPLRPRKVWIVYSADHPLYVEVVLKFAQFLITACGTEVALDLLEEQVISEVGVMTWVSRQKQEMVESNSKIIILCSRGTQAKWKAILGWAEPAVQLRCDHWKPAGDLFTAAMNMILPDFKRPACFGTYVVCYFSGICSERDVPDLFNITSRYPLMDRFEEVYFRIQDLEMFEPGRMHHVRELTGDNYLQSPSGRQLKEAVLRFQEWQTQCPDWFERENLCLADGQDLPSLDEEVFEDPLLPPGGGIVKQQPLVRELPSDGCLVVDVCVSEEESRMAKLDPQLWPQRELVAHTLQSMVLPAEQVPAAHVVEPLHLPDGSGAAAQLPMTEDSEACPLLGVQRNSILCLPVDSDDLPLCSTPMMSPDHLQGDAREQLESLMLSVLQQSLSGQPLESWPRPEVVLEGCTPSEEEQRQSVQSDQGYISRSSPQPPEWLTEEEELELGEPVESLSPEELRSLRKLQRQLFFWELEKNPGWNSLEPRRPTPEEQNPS

[2] = molecular target: T2, Myc-tagged mouse IL-17RA mutant M2 (I460A/L461A) (mouse) (UniProt Q60943)
T2 sequence: T1 sequence with I429A, L430A

[3] = molecular target: T3, Myc-tagged mouse IL-17RA mutant M3 (R451A/Q454A/K458A) (mouse) (UniProt Q60943)
T3 sequence: T1 sequence with R420A, Q423A, K427A

[4] = molecular target: T4, Myc-tagged mouse IL-17RA mutant M4 (E419A/Q420A/E424A) (mouse) (UniProt Q60943)
T4 sequence: T1 sequence with E388A, Q389A, E393A

[5] = molecular target: T5, Myc-tagged mouse IL-17RA mutant M5 (V427A/M428A) (mouse) (UniProt Q60943)
T5 sequence: T1 sequence with V396A, M397A

Measured: binding

B1: NF-κB activator 1 (Act1) (protein, UniProt Q8N7N6 1-555)
chain: MNRSIPVEVDESEPFPSQLLKPIPEYSPEEELEPPAPNTRNMAPSSLSVLQCPPLKLANHQPVSQQVTCLRAKVLEEGEASFFRRHPELGKDISSCSSGASEPESELGALPPEHRFTLTEKRNRWLGSQLSAASPDTGHESDKSDPSLPNALADSFSGGQEMMPRPRPRPGPHRHRAAPDVPTIDTGYDSQPQDVLGIRQLERPLPLTSSCYLQDLPGPLRSRELPPQFELERYPMNAQLLPPHPSPQAPWNCQYYCPGGPYHHQVPHGHGYPPAAAYQQVLQPALPGQVLPGARARGPRPVQKVILNDSSPQDQEERPAQRDFSFPRLPRDQLYRPPSNGVEAPEESLDLPAELRPHGPQAPSLAAVPRPPSNPLARGTLRTSNLPEELRKVFITYSMDTAMEVVKFVNFLLVNGFQTAIDIFEDRIRGIDIIKWMERYLRDKTVMIIVAISPKYKQDVEGAESQLDEDEHGLHTKYIHRMMQIEFISQGSMNFRFIPVLFPNAKKEHVPTWLQNTHVYSWPKNKKNILLRLLREEEYVAPPRGPLPTLQVVPL
binds: [1] | [2] | [3] | [4] | [5]
